From the supplement of paper PMC10338343
± gives the standard deviation. The list shows a part of the results, in another mix than the full data. The uncertainty is large for many entries.

System: MIWI (PIWIL1) piRISC loaded with L1MC piRNA (30 nt)
Assay: pre-steady-state target cleavage rate (min^-1); MIWI and MILI are mouse PIWI proteins and EfPiwi is from a freshwater sponge; tags in brackets are library labels; higher = faster piRNA-guided slicing of the target
Conditions: guide: L1MC piRNA 5'p-UAACUAAAUACUAUGCAAGCUGUAGGUCCU; auxiliary factor: none (no GTSF1)
Procedure, shortened: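 The method was Cleave-'n-Seq, in which uncleaved targets from a transcribed, DNA-blocked target RNA library were sequenced after exposure to active affinity-purified piRISC carrying one synthetic guide, with or without GTSF1 partner protein. Reactions contained 0.1 nM library, 1 nM piRISC and, where present, 500 nM GTSF1 in HEPES–potassium acetate buffer at 33 °C for 0–8 or 0–960 min. Reads were normalised to depth and to weakly complementary targets, three trials were pooled, and k3 was capped at 0.0001 min^-1. The pre-steady-state cleavage rate came from a burst-and-steady-state fit.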

Sequence	pre-steady-state target cleavage rate
AGCUGCUACAGCUUGCAUAGUAUUUUCAAA	0.00144 ± 0.0043
AGGACCUAGUCCUUGCAUAGUAUUUUCAAA	0.00171 ± 0.0028
UCCACCUACAGCUUCCAUAGAAUUUAGUUA	0.00107 ± 0.004
UCGACCUACAGCUUGCUAUGUAUUUAGAAA	0.000546 ± 0.0086
UCCACCUACAGCUUCCAAAGUAUUUAGUUA	0.00128 ± 0.002
UCGACCUACAGCUUGCAUAGUAAAAACAAA	0.00024 ± 0.018
UCCACCUACUCGUUGCAUAGUAUUUACAAA	0.000948 ± 0.0059
UCCUGGAUGUCGAACGAUUGUUUUUAGUUA	0.000203 ± 0.026
UCCUGGAUCAGCUACGAUAGUAUUUACAAA	0.000282 ± 0.012
UGCUCCUACAGCUUGCAUAGUAUUUUCAAA	0.00263 ± 0.003
UCGACCUACAGCUUGCAUAGUUAUUAGAAA	0.00153 ± 0.0046
AGGACCUACAGCUUGCAUAAGUAUUUAGUUA	0.00101 ± 0.0089
UCGACCUACAGCUUGCAUAGAUAUUAGAAA	0.000697 ± 0.01
UCGACCUACAGGAUGCAUAGUAUUUAGAAA	0.00161 ± 0.0031
UGGACCUACAGCUUGCUAAGUAUUUUCAAA	0.000183 ± 0.013
UCGACCUACAGCUUCGUUAGUAUUUAGAAA	0.000706 ± 0.009
UCCUGGAUGUCGAACGUUACUAUUUAGUAA	0.000187 ± 0.036
UCGACCUACAGCUUGCAUAGUAAAAAGAAA	0.000517 ± 0.011
AGGACCUACAGCAAGCAUAGUAUUUACAAA	0.00134 ± 0.0049
AGGACCUACAGCUUGCAUAGUAAAAUCAAA	0.000912 ± 0.0089

Sequence	pre-steady-state target cleavage rate
UCGACCUACAGCUUCCAUAGUAUAUAGUUA	0.00106 ± 0.0058
UGGACCUACAGGUUCCAUAGUAUUUAGUUA	0.00148 ± 0.0045
UGGACCUACAGCUUGCAUAGUAAAAUCAAA	0.000337 ± 0.0072
UCCACCUACAGCUUGCAUACUAUUUUCAAA	0.000932 ± 0.0049
UGGACCUACAGCUUGCAUUCAUAAAUCAAA [g13:g29:cont:t1A]	0.000208 ± 0.016
UCCACCUACAGCUUGCUAAGUAUUUAGUAA	0.00132 ± 0.0047
UCCUGGAACAGCUUGCUAUCAUAAAUCAAA [g15:g23:cont:t1A]	0.00059 ± 0.011
UCCUGGAUGUCGAUGCAUAGUAUUUUAGUUA	0.000782 ± 0.0092
AGGACCUACAGCUUGCAUACAAUUUAGUAA	0.00185 ± 0.0049
AGGACCUACAGCUUGCUUAGUAUUUUCAAA	0.00234 ± 0.0035
UGGACCUACAGCUUGCAUAGUAUAAAGAAA	0.00191 ± 0.0034
UGGACCUACAGCUUGCUAUAGUAUUUAGUUA	0.00123 ± 0.0042
UCGACCUACAGCUUGCAUAGUAUAUAGAAA	0.00238 ± 0.0038
UCGACCUACAGCUAGCAUAGUAUUUUCAAA	0.00108 ± 0.0073
UGGACCUACAGCUUGCACUAGUAUUUAGUUA	0.000894 ± 0.0066
UGGACCUACAGCUUGCAUAGCUAUUUAGUUA	0.00183 ± 0.0029
UCCACCUACAGGAAGCAUAGUAUUUUCAAA	0.000599 ± 0.01
UCGACCUACAGCUUGCAAUCUAUUUUCAAA	0.00077 ± 0.01
UGGACCUACAGCUUCGAUAGUAUUUAGUAA	0.00115 ± 0.0035

2 records drawn at random from those above:
Sequence	pre-steady-state target cleavage rate
UGGACCUACAGCUUCGAUAGUAUUUAGUAA	0.00115 ± 0.0035
UGGACCUACAGCUUGCACUAGUAUUUAGUUA	0.000894 ± 0.0066
